From article PMC9141838
Results are given in words; binding and its absence hold for the method and conditions named. Binding seen in cells or lysates may run through a third protein. Some entries that bind do so weakly or less than the wild type. Sequences can lack the tags named with a protein. One block for each binder: values may come before it.

Molecular target: T1, Flag-tagged USP39 (ubiquitin-specific protease 39) (human) (UniProt Q53GS9)
T1 sequence: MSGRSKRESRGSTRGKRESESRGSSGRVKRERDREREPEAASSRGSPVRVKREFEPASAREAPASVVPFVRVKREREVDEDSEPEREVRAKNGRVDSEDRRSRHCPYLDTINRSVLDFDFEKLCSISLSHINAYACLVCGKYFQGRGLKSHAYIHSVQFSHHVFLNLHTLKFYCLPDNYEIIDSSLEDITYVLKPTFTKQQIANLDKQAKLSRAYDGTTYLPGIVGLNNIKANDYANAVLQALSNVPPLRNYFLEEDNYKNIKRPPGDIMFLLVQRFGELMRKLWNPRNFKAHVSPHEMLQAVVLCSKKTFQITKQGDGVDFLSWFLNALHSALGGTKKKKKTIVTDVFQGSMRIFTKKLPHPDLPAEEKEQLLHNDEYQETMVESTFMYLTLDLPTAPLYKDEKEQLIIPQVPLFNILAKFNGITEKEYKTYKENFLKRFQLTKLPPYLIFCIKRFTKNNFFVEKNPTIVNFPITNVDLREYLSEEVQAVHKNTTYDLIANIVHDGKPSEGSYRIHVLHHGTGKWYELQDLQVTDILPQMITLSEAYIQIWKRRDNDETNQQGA
Experiment: co-IP; KYSE30 cells, RIPA lysis buffer; lysate with anti-FLAG M2 affinity gel and anti-FLAG antibody overnight at 4 °C, washed three times with TBST, Western blot

- binding: binds
B1: DDX23 (protein, UniProt Q9BUQ8 1-820)
chain: MAGELADKKDRDASPSKEERKRSRTPDRERDRDRDRKSSPSKDRKRHRSRDRRRGGSRSRSRSRSKSAERERRHKERERDKERDRNKKDRDRDKDGHRRDKDRKRSSLSPGRGKDFKSRKDRDSKKDEEDEHGDKKPKAQPLSLEELLAKKKAEEEAEAKPKFLSKAEREAEALKRRQQEVEERQRMLEEERKKRKQFQDLGRKMLEDPQERERRERRERMERETNGNEDEEGRQKIREEKDKSKELHAIKERYLGGIKKRRRTRHLNDRKFVFEWDASEDTSIDYNPLYKERHQVQLLGRGFIAGIDLKQQKREQSRFYGDLMEKRRTLEEKEQEEARLRKLRKKEAKQRWDDRHWSQKKLDEMTDRDWRIFREDYSITTKGGKIPNPIRSWKDSSLPPHILEVIDKCGYKEPTPIQRQAIPIGLQNRDIIGVAETGSGKTAAFLIPLLVWITTLPKIDRIEESDQGPYAIILAPTRELAQQIEEETIKFGKPLGIRTVAVIGGISREDQGFRLRMGCEIVIATPGRLIDVLENRYLVLSRCTYVVLDEADRMIDMGFEPDVQKILEHMPVSNQKPDTDEAEDPEKMLANFESGKHKYRQTVMFTATMPPAVERLARSYLRRPAVVYIGSAGKPHERVEQKVFLMSESEKRKKLLAILEQGFDPPIIIFVNQKKGCDVLAKSLEKMGYNACTLHGGKGQEQREFALSNLKAGAKDILVATDVAGRGIDIQDVSMVVNYDMAKNIEDYIHRIGRTGRAGKSGVAITFLTKEDSAVFYELKQAILESPVSSCPPELANHPDAQHKPGTILTKKRREETIFA

- binding: binds
B2: PRPF3 (protein, UniProt O43395 1-683)
chain: MALSKRELDELKPWIEKTVKRVLGFSEPTVVTAALNCVGKGMDKKKAADHLKPFLDDSTLRFVDKLFEAVEEGRSSRHSKSSSDRSRKRELKEVFGDDSEISKESSGVKKRRIPRFEEVEEEPEVIPGPPSESPGMLTKLQIKQMMEAATRQIEERKKQLSFISPPTPQPKTPSSSQPERLPIGNTIQPSQAATFMNDAIEKARKAAELQARIQAQLALKPGLIGNANMVGLANLHAMGIAPPKVELKDQTKPTPLILDEQGRTVDATGKEIELTHRMPTLKANIRAVKREQFKQQLKEKPSEDMESNTFFDPRVSIAPSQRQRRTFKFHDKGKFEKIAQRLRTKAQLEKLQAEISQAARKTGIHTSTRLALIAPKKELKEGDIPEIEWWDSYIIPNGFDLTEENPKREDYFGITNLVEHPAQLNPPVDNDTPVTLGVYLTKKEQKKLRRQTRREAQKELQEKVRLGLMPPPEPKVRISNLMRVLGTEAVQDPTKVEAHVRAQMAKRQKAHEEANAARKLTAEQRKVKKIKKLKEDISQGVHISVYRVRNLSNPAKKFKIEANAGQLYLTGVVVLHKDVNVVVVEGGPKAQKKFKRLMLHRIKWDEQTSNTKGDDDEESDEEAVKKTNKCVLVWEGTAKDRSFGEMKFKQCPTENMAREHFKKHGAEHYWDLALSESVLESTD

- binding: binds
B3: SART1 (protein, UniProt O43290 1-800)
chain: MGSSKKHRGEKEAAGTTAAAGTGGATEQPPRHREHKKHKHRSGGSGGSGGERRKRSRERGGERGSGRRGAEAEARSSTHGRERSQAEPSERRVKREKRDDGYEAAASSKTSSGDASSLSIEETNKLRAKLGLKPLEVNAIKKEAGTKEEPVTADVINPMALRQREELREKLAAAKEKRLLNQKLGKIKTLGEDDPWLDDTAAWIERSRQLQKEKDLAEKRAKLLEEMDQEFGVSTLVEEEFGQRRQDLYSARDLQGLTVEHAIDSFREGETMILTLKDKGVLQEEEDVLVNVNLVDKERAEKNVELRKKKPDYLPYAEDESVDDLAQQKPRSILSKYDEELEGERPHSFRLEQGGTADGLRERELEEIRAKLRLQAQSLSTVGPRLASEYLTPEEMVTFKKTKRRVKKIRKKEKEVVVRADDLLPLGDQTQDGDFGSRLRGRGRRRVSEVEEEKEPVPQPLPSDDTRVENMDISDEEEGGAPPPGSPQVLEEDEAELELQKQLEKGRRLRQLQQLQQLRDSGEKVVEIVKKLESRQRGWEEDEDPERKGAIVFNATSEFCRTLGEIPTYGLAGNREEQEELMDFERDEERSANGGSESDGEENIGWSTVNLDEEKQQQDFSASSTTILDEEPIVNRGLAAALLLCQNKGLLETTVQKVARVKAPNKSLPSAVYCIEDKMAIDDKYSRREEYRGFTQDFKEKDGYKPDVKIEYVDETGRKLTPKEAFRQLSHRFHGKGSGKMKTERRMKKLDEEALLKKMSSSDTPLGTVALLQEKQKAQKTPYIVLSGSGKSMNANTITK
